PubChem BioAssay AID1259314 – Drosophila RNAi Screening Center, 2017

- Test: 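Modifiers of manganese chloride toxicity in fly cells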 (primary screen)
- Cell system: Drosophila S2R+ cells
- Reagents: long dsRNA against Drosophila genes
- Timing: 5 days (4 days knock-down, then 1 day metal exposure)
- Conditions: manganese chloride added to 15 mM for 24 hours
- Measurement: 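Cellular ATP measured by luciferase light, scaled to the plate mean, averaged across replicates and z-scored over plates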
- Direction: mean ATP z-score: higher = more ATP than the plate average, more viable cells under manganese
- Hit rule: 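a mean ATP z-score past 1.5 in either direction is called active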
- Calls: active = strong ATP change, up or down; inactive = no strong ATP change
The whole screen tested about 3,100 reagents; below is an unselected part. 289 of all reagents (9.3%) count as active. 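Active includes both higher and lower ATP than plate average; check the z-score sign for direction.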 Unmarked entries are inactive. Names joined by + are all predicted targets of the reagent. Reagent sequences are not shown. Not stated in the record: the amount of reagent.

| predicted target | dsRNA | mean ATP z-score |
| --- | --- | --- |
| Rh4 | DRSC27381 | -0.641 |
| CG5002 | DRSC06911 | 2.08 (active) |
| CG17637 | DRSC11740 | -1.52 (active) |
| Vha100-3 | DRSC05760 | -0.0856 |
| Vha100-3 | DRSC39558 | 1.31 |
| Arl6IP1 | DRSC14231 | -0.0957 |
| Arl6IP1 | DRSC39486 | 1.42 |
| CG9903 | DRSC20213 | -0.259 |
| CG9903 | DRSC39657 | 0.0208 |
| nAChRbeta1 | DRSC08097 | -0.364 |
| nAChRbeta1 | DRSC08728 | 1.34 |
| Desat2 | DRSC25894 | -0.623 |
| Desat2 | DRSC39498 | -0.0571 |
| CG11426 | DRSC11658 | -0.457 |
| CG11426 | DRSC27815 | -0.843 |
| CG11426 | DRSC37070 | 0.153 |
| CG10171 | DRSC09711 | -0.314 |
| CG10171 | DRSC26279 | -0.901 |
| lbm | DRSC07643 | 1.9 (active) |
| lbm | DRSC39509 | 0.857 |
| mthl11 | DRSC12779 | -0.0662 |
| mthl11 | DRSC28437 | -1.93 (active) |
| CG2938 | DRSC27919 | -1.69 (active) |
| nebu | DRSC09807 | -1.1 |
| nebu | DRSC09808 | -0.37 |
| CngA | DRSC07362 | 0.29 |

Taken from above:
Under “mean ATP z-score”, Vha100-3 [DRSC39558] shows 1.31
nAChRbeta1 [DRSC08097], mean ATP z-score → -0.364
For “mean ATP z-score”, Arl6IP1 [DRSC39486] has 1.42
Value for nAChRbeta1 [DRSC08728] in “mean ATP z-score”: 1.34
For “mean ATP z-score”, CG11426 [DRSC11658] shows -0.457
Result for CG5002 [DRSC06911] in “mean ATP z-score”: 2.08 (active)

Additional records follow.
| predicted target | dsRNA | mean ATP z-score |
| --- | --- | --- |
| ATP7 | DRSC19819 | -0.0376 |
| ATP7 | DRSC39460 | -0.898 |
| CG17929 | DRSC15291 | -0.0437 |
| CG17929 | DRSC39673 | 0.278 |
| CG11601 | DRSC00318 | -0.529 |
| CG11601 | DRSC39635 | 1.2 |
| CG14691 | DRSC14914 | -0.42 |
| CG14691 | DRSC27957 | 0.787 |
| ics | DRSC29655 | 0.633 |
| CG18788 | DRSC02697 | -0.582 |
| Zip99C | DRSC16320 | 0.402 |
| Ir56d | DRSC06590 | -0.437 |
| Ir56d | DRSC28383 | -0.419 |
| CG4476 | DRSC10424 | -1.29 |
| CG4476 | DRSC25362 | -0.0657 |
| PIG-U | DRSC02193 | 0.0819 |
| PIG-U | DRSC28900 | -0.754 |
| Or85e | DRSC16768 | -0.573 |
| btl | DRSC11331 | -0.791 |
| btl | DRSC36653 | 0.14 |
| btl | DRSC36654 | -0.319 |
| TM9SF4 | DRSC01888 | -0.317 |
| TM9SF4 | DRSC39660 | -0.737 |
| GABA-B-R1 | DRSC22038 | 0.0883 |
| GABA-B-R1 | DRSC39785 | -0.217 |
| Gr64b + Gr64c | DRSC08444 | -0.453 |
| Gr64b + Gr64c | DRSC08445 | -1.16 |
| Gr64b + Gr64c | DRSC27568 | -0.236 |
| wus | DRSC20278 | -0.16 |
| wus | DRSC39483 | -1.26 |
| CG14194 | DRSC19549 | -0.587 |
| Tyler + Shawn | DRSC19564 | -0.0837 |
| Tyler + Shawn | DRSC19565 | 0.12 |
| CG12531 | DRSC19466 | -0.0895 |
| CG12531 | DRSC27679 | -0.293 |
